Test results taken from publication doi:10.1101/488304.
Results are given in words; binding and its absence hold for the method and conditions named. In cells and extracts the contact can be indirect. Some entries that bind do so weakly or less than the wild type. Each block holds one binder with its values, some of them ahead of it.

Legend:
[1] = biological target: T1, Podoplanin (endogenous in B16.F10 mouse melanoma cells) (mouse (endogenous in B16.F10)) (UniProt Q62011); assay: co-IP
T1 sequence: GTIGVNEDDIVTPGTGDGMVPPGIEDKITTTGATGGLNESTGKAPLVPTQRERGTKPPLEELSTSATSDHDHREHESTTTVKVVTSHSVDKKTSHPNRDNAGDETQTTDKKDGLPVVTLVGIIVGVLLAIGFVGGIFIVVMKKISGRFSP

[2] = biological target: T2, Caveolin-1 (endogenous in B16.F10 mouse melanoma cells) (mouse (endogenous in B16.F10)) (UniProt P49817); assay: co-IP
T2 sequence: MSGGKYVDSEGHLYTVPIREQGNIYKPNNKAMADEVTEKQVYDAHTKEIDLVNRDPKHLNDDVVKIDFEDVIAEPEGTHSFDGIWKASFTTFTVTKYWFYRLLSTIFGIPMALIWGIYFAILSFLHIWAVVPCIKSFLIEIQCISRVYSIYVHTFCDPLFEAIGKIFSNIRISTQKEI

binding [1]: binds
B1: Caveolin-1 (endogenous in B16.F10 mouse melanoma cells) (protein, UniProt P49817 1-178)
chain: T2 sequence

binding [2]: binds
B2: Podoplanin (endogenous in B16.F10 mouse melanoma cells) (protein, UniProt Q62011 23-172)
chain: T1 sequence
